Measurements: paper doi:10.1101/2023.12.07.570680
No constants are given. Whether binding was seen depends on the method and setting. In cells and extracts the contact can be indirect. Some binding calls cover weakened binding; strength is not graded here. Where a sequence is shown, tags or fusion partners need not be part of it.

What was measured:
[1] = target: T1, Myc-tagged EMB1270 (EMB1270-Myc) from EMB1270:EMB1270-Myc/emb1270 plants (Arabidopsis thaliana) (UniProt Q5G1S8); assay: pull-down
T1 sequence: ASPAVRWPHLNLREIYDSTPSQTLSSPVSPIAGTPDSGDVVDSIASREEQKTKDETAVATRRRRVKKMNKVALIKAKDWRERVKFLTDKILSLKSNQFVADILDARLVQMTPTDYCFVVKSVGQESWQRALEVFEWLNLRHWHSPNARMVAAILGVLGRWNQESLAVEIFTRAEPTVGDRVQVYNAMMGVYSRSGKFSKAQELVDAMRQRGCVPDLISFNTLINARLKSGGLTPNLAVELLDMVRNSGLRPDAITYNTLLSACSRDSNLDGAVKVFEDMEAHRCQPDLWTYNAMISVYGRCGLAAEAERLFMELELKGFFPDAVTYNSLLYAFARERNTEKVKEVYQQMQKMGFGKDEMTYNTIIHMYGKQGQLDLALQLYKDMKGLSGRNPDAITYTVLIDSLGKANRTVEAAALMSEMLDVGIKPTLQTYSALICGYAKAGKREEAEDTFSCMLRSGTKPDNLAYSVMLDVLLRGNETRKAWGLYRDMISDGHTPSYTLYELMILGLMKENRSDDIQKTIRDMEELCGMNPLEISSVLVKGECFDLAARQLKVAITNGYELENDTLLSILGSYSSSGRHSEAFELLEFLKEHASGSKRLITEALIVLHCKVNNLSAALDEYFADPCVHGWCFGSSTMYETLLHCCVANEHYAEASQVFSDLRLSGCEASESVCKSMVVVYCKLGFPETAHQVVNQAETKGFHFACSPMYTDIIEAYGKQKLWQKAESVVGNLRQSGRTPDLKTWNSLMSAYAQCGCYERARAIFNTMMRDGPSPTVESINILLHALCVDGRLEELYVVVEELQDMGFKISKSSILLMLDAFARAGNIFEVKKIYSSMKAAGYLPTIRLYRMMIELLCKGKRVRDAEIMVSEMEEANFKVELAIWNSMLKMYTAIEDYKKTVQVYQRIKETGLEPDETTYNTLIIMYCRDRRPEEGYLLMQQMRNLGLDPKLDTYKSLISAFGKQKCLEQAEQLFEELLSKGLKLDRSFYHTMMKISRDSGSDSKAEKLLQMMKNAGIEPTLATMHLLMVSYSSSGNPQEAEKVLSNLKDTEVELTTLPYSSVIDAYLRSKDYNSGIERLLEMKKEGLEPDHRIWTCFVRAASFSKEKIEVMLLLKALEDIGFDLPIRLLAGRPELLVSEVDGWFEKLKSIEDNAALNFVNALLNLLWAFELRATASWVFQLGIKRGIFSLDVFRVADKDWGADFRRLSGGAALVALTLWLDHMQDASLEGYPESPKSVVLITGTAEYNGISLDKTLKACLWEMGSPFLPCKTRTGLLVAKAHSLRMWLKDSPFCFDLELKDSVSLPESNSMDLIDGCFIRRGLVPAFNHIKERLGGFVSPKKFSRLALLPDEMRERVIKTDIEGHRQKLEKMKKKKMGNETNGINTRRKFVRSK

[2] = target: T2, Myc-tagged CFM2 (CFM2-Myc) from CFM2:CFM2-Myc/cfm2 plants (Arabidopsis thaliana) (UniProt Q8L7C2); assay: pull-down
T2 sequence: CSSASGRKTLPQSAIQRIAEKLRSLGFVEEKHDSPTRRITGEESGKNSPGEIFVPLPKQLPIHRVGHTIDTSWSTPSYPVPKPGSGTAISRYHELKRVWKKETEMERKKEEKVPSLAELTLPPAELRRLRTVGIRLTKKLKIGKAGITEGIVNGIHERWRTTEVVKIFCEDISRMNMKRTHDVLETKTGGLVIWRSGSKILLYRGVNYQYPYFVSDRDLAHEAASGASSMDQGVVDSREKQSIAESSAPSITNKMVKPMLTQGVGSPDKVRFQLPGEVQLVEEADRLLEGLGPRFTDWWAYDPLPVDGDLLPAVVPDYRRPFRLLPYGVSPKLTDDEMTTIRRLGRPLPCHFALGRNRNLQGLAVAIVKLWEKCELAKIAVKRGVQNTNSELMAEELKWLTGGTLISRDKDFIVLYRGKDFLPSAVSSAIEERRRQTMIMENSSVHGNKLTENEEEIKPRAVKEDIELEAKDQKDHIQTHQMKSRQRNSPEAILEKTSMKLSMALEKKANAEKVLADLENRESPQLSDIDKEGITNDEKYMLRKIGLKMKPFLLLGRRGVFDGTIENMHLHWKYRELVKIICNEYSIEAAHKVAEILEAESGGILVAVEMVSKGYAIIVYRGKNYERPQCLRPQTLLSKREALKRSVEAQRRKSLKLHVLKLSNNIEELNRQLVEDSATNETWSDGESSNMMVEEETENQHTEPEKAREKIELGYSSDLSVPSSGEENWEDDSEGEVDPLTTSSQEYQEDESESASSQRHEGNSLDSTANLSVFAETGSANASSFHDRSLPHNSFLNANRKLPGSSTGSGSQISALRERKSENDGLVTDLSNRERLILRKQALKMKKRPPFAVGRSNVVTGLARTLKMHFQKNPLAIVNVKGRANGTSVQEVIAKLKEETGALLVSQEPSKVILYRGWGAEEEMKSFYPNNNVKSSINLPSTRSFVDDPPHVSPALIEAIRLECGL

B1: recombinant MBP-EMB1006 (protein, UniProt Q9FGR7 45-723)
chain: ATSPSSSSSSPSIFLSCFDDALPDKIQQPENSTINSEESECEEEDDEEGDDFTDPILKFFKSRTLTSESTADPARESKFSLQKNRRTSWHLAPDFADPETEIESKPEESVFVTNQQTLGVHIPFESGVAREILELAKNLKENQTLGEMLSGFERRVSDTECVEALVMMGESGFVKSCLYFYEWMSLQEPSLASPRACSVLFTLLGRERMADYILLLLSNLPDKEEFRDVRLYNAAISGLSASQRYDDAWEVYEAMDKINVYPDNVTCAILITTLRKAGRSAKEVWEIFEKMSEKGVKWSQDVFGGLVKSFCDEGLKEEALVIQTEMEKKGIRSNTIVYNTLMDAYNKSNHIEEVEGLFTEMRDKGLKPSAATYNILMDAYARRMQPDIVETLLREMEDLGLEPNVKSYTCLISAYGRTKKMSDMAADAFLRMKKVGLKPSSHSYTALIHAYSVSGWHEKAYASFEEMCKEGIKPSVETYTSVLDAFRRSGDTGKLMEIWKLMLREKIKGTRITYNTLLDGFAKQGLYIEARDVVSEFSKMGLQPSVMTYNMLMNAYARGGQDAKLPQLLKEMAALNLKPDSITYSTMIYAFVRVRDFKRAFFYHKMMVKSGQVPDPRSYEKLRAILEDKAKTKNRKDKTAILGIINSKFGRVKAKTKGKKDEFWKYKTNRTTSPGRHRS
[1]
  binding: binds
[2]
  binding: binds
